PubChem BioAssay AID686938 | Drosophila RNAi Screening Center – 2013

- Assay: 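Looking for CRAC channel components and the factors controlling them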 (primary screen)
- Cells: Drosophila S2R+ cells
- Reagents: long dsRNA against Drosophila genes, about 0.25 µg dsRNA per well, roughly 10,000 cells
- Time to read-out: 5 days of knock-down before the calcium assay
- Conditions: thapsigargin (SERCA pump blocker) to empty calcium stores; entry signal taken 4 min after adding it
- Measured: 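Per-well fluo-4 fluorescence in two replicates, unnormalised, measured in resting cells and 4 min after store depletion by the SERCA blocker thapsigargin; ratio of the two present in few wells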
- Direction: calcium entry signal: higher = stronger calcium signal after store depletion; entry to resting ratio: higher = more calcium entry relative to resting level; resting calcium signal: higher = higher resting calcium signal
- Hit rule: 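Called when the plate z-score of the entry-to-rest ratio, mean of duplicates, falls below −3; wells with low overall dye signal (Fmax z below −2) or more than five off-targets excluded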
- Calls: active = strongly reduced calcium entry; inactive = no strong reduction
In all, the deposit lists about 23,000 reagents; this is an unselected part of those with a known target gene and a result. Of all reagents, 75 (0.33%) are marked active. 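Raw plate signals without normalisation; calls rest on plate z-scores that were not deposited; ratio present for only 364 wells.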 Not stated in the record: the dose of the treatment.

| gene knocked down | DRSC id | calcium entry signal, replicate 1 (fluorescence units) | calcium entry signal, replicate 2 (fluorescence units) | entry to resting ratio | resting calcium signal, replicate 1 (fluorescence units) | resting calcium signal, replicate 2 (fluorescence units) | activity call |
| --- | --- | --- | --- | --- | --- | --- | --- |
| CG17134 | DRSC02583 | 2.49e7 | 3.68e7 | – | 1.23e7 | 1.54e7 | inactive |
| CG14708 | DRSC14930 | 3.96e7 | 4.26e7 | – | 1.84e7 | 1.89e7 | inactive |
| LRR (Leucine-rich repeat) | DRSC06444 | 3.96e7 | 4.68e7 | – | 2.00e7 | 2.40e7 | inactive |
| NUCB1 (Nucleobindin 1) | DRSC22137 | 2.71e7 | 3.72e7 | – | 1.32e7 | 1.68e7 | inactive |
| Vsp37A (Vacuolar protein sorting 37A) | DRSC18794 | 3.30e7 | 4.50e7 | 2 | 1.64e7 | 1.81e7 | inactive |
| CG6937 | DRSC16140 | 1.94e7 | 2.03e7 | – | 1.19e7 | 1.02e7 | inactive |
| CG14411 | DRSC19597 | 3.72e7 | 3.59e7 | – | 2.02e7 | 1.47e7 | inactive |
| CYLD (Cylindromatosis) | DRSC02870 | 2.92e7 | 3.77e7 | – | 1.55e7 | 1.59e7 | inactive |
| Ns1 (Nucleostemin 1) | DRSC15529 | 1.80e7 | 2.39e7 | – | 1.12e7 | 5.92e7 | inactive |
| CG11723 | DRSC00324 | 3.95e7 | – | – | 1.68e7 | – | inactive |
| Dhdds (Dehydrodolichyl diphosphate synthase subunit) | DRSC17756 | 2.21e7 | 3.05e7 | – | 1.18e7 | 1.55e7 | inactive |
| xit (xiantuan) | DRSC18364 | 3.18e7 | 3.76e7 | – | 1.52e7 | 1.67e7 | inactive |
| CG13032 | DRSC09912 | 3.08e7 | 6.73e7 | – | 1.63e7 | 2.57e7 | inactive |
| Rpn11 (Regulatory particle non-ATPase 11) | DRSC03422 | 2.29e7 | 1.79e7 | – | 1.63e7 | 1.23e7 | inactive |
| CG33784 | DRSC12764 | 3.56e7 | 6.20e7 | – | 1.70e7 | 2.73e7 | inactive |
| CG5665 | DRSC11783 | 2.38e7 | 4.28e7 | – | 1.10e7 | 1.64e7 | inactive |
| ms(3)K81 (male sterile (3) K81) | DRSC14746 | 2.69e7 | 4.50e7 | – | 1.42e7 | 1.97e7 | inactive |
| Mst84Db (Male-specific RNA 84Db) | DRSC12542 | 3.12e7 | 2.12e7 | – | 1.64e7 | 1.09e7 | inactive |
| Mst84Db (Male-specific RNA 84Db) | DRSC12598 | 3.37e7 | 2.40e7 | – | 1.77e7 | 1.19e7 | inactive |
| Snap24 (Synaptosomal-associated protein 24kDa) | DRSC16864 | 8.31e6 | 2.89e7 | – | 7.94e6 | 1.41e7 | inactive |
| TpnC41C (Troponin C at 41C) | DRSC04916 | 2.93e7 | 4.48e7 | – | 1.51e7 | 2.07e7 | inactive |
| CG10576 | DRSC09745 | 3.26e7 | 2.28e7 | – | 2.30e7 | 1.03e7 | inactive |
| CG42553 | DRSC08356 | 3.80e7 | 3.46e7 | – | 2.01e7 | 1.79e7 | inactive |
| CG11980 | DRSC14456 | 3.61e7 | 3.68e7 | – | 1.65e7 | 1.70e7 | inactive |
